These results are taken from article PMC5542435.

By UniProt entry, the sequences of proteins in these tests, tags left out. Where a name states a change or a piece, a line headed by the entry shows the natural chain unless it says otherwise.
UniProt A0A2X4T7I8: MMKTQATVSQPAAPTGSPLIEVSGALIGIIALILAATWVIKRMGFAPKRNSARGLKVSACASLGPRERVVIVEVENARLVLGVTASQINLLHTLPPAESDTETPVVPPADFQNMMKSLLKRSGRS

Results are given in words; binding and its absence hold for the method and conditions named. Binding can be weak; no strength is given. Tags and fused reporters may be left off the sequences shown. For part of these data: Binding seen in cells or lysates may run through a third protein.

Test [1] has as its target T1, FliP-3×FLAG (chromosomally encoded, expressed from the native fliP locus) (S. enterica serovar Typhimurium LT2) (UniProt P54700).
T1 sequence: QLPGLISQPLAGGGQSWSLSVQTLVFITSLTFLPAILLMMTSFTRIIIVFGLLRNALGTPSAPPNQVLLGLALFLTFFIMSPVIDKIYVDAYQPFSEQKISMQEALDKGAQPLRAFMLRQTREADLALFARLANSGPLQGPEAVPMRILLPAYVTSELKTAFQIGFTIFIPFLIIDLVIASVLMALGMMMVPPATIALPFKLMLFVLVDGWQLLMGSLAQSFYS
Description: native gel or EMSA; BN-PAGE (3%–12%) of crude membrane extracts solubilised in DDM, strain with chromosomal FliP-3×FLAG; FliP-containing complexes found by anti-FLAG Western blot, selected bands analysed by LC-MS/MS. (In general: A gel shift assay detects complexes by their altered migration in electrophoresis.)

Test [2] addresses T2, His6-FliP (expressed from pTrc99a-fliO-fliP_(His6) in E. coli) (UniProt P54700).
T2 sequence: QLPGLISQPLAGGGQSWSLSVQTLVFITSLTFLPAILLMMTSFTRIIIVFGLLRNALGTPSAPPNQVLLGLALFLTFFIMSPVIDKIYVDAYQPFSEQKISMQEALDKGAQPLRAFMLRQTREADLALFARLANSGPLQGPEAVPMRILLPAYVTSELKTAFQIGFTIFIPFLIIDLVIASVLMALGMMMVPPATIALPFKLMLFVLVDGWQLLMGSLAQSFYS
Description: pull-down + SEC; FliO and FliP_(His6) co-expressed in E. coli; crude membranes solubilised in DDM; Ni-NTA affinity purification of FliP_(His6), then size exclusion chromatography; fractions analysed by Coomassie and anti-FliP / anti-FliO Western blot.

Test [3] concerns the target FliO-3×FLAG (chromosomally encoded) (S. enterica serovar Typhimurium LT2). Description: co-IP; pull down of chromosomal FliO-3×FLAG on anti-FLAG M2 affinity gel from DDM-solubilised crude membrane extracts of a rod− background; chromosomal FliP-3×HA co-purified.

Turning to “FliO (untagged, endogenous in S. Typhimurium) (from UniProt A0A2X4T7I8)”, the binding entry in test [1] was “binds”.

For the molecule “FliO (co-expressed with His6-FliP in E. coli)”, the binding result in test [2] is listed as “binds”.

B1: FliP-3×HA (chromosomally encoded) (protein, UniProt P54700 22-245)
chain: QLPGLISQPLAGGGQSWSLSVQTLVFITSLTFLPAILLMMTSFTRIIIVFGLLRNALGTPSAPPNQVLLGLALFLTFFIMSPVIDKIYVDAYQPFSEQKISMQEALDKGAQPLRAFMLRQTREADLALFARLANSGPLQGPEAVPMRILLPAYVTSELKTAFQIGFTIFIPFLIIDLVIASVLMALGMMMVPPATIALPFKLMLFVLVDGWQLLMGSLAQSFYS
Take B1: the binding entry in test [3] is given as “binds”.
